Patent US20030139609A1, “Aziridinyl quinone antitumor agents based on indoles and cyclopent[b]indoles” (priority 2001, published 2003)
Some entries share one result that the patent states for a list of compounds.

Chains of the proteins cited; added tags and fusions are not shown.
UniProt P15559, whole entry: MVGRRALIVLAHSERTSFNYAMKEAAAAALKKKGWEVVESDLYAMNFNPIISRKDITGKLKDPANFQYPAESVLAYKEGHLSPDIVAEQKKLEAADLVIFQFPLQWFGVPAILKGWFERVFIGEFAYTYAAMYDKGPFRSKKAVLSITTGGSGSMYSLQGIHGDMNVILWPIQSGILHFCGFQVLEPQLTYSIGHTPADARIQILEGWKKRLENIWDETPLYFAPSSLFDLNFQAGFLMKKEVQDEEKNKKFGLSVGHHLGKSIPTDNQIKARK

Biological target: human DT-diaphorase (from the non-small cell lung NCI-H460 cell line) (Homo sapiens, UniProt P15559)
Assay: DT-diaphorase substrate kinetics (recombinant enzyme, anaerobic, Lineweaver-Burke)
Format: biochemical
From the text: Listed in Tables 1-4 are the human DT-diaphorase kinetic parameters for Series 1-9, along with the DNA alkylation percentages. These parameters include the apparent dissociation constant KM, the apparent maximal velocity VMAX, and the substrate specificity, VMAX/KM. The designation “apparent” refers to the present of productive and nonproductive constants in KM and VMAX. {Fersht, A. R., The Hydrogen Bond in Molecular Recognition Trends, Biochem. Sci., 1987, 12, 301-304} These constants cancel in the ratio VMAX/KM, which is the best parameter to compare substrates. Human DT-diaphorase (from the non-small cell lung NCI-H460 cell line) {Beall, H. D., Mulcahy, R. T., Siegel, D., Traver, R D., Gibson, N. W., and Ross, D., Metabolism of Bioreductive Antitumor Compounds by Purified Rat and Human DT-Diaphorase Cancer Res., 1994, 54, 3196-3201 } was used to obtain these kinetic parameters. This enzyme is the same as that present in other human tissues, cancerous or otherwise.
Kinetics Studies using Recombinant DT-diaphorase. Kinetics studies were carried out in 0.05 M pH 7.4 Tris buffer under anaerobic conditions, employing Thunberg cuvettes. A 4.0 mM of quinone stock solution was prepared in dimethyl sulfoxide(DMSO). To the top port of the cuvette was added the quinone stock solution, and to the bottom port was added the recombinant DT-diaphorase and NADH stock solutions in Tris buffer. Both portions were purged with argon for 20 min and equilibrated at 30° C. for 10 min. The ports were then mixed and the reaction was followed at 336 nm for 10 min to obtain initial rates. The final concentrations of the mixture were 0.3 mM NADH, 1.3×10^−6 to 6.7×10^−5 M of quinone substrate and 1.4×10^−9 M of recombinant DT-diaphorase. To calculate Vmax, the value of □□ must be obtained. □□ was calculated from the initial and final absorbances for complete quinone reduction; all values are between 8000 to 9000 M^−1 cm^−1. All data were fitted to a Lineweaver-Burke plot from which VMAX and KM were obtained.

| Compound | DT-diaphorase specificities |
| --- | --- |
| CC1=C(N2CC2)C(=O)c2c([nH]c3c2CCC3O)C1=O (stereo not drawn) [Compound 2a, 7-Aziridinyl-3-hydroxy-6-methyl-1,2,3,4-tetrahydrocyclopent[b]indole-5,8-dione] | below 50 ×10^−4 M^−1 |
| CC1=C(N2CC2)C(=O)c2c([nH]c(CO)c2CO)C1=O [Compound 7a, 5-Aziridinyl-2,3-di(hydroxymethyl)-6-methylindole-4,7-dione] | below 50 ×10^−4 M^−1 |
| O=C1C(N2CC2)=CC(=O)c2c1[nH]c1c2CCC1O (stereo not drawn) [Compound 3a, 6-Aziridinyl-3-hydroxy-1,2,3,4-tetrahydrocyclopent[b]indole-5,8-dione] | below 50 ×10^−4 M^−1 |
